# In patent US12115167B2 (Woolsey Pharmaceuticals, Inc., priority 2022, dated 2024):
# Columns and labels:
# [1] = Bitterness rank 1 to 10 of fasudil stock solution with bitterness masking agents; details: for Rank#: Bitterness rank 1 to 10, 10 being most bitter
# [2] = Tasting of fasudil formulations by subjects / panel of tasters (bitterness, palatability); details: tasted by subjects or panel, in words
# [3] = Taste threshold concentration; details: first taste-tester
# [4] = agent added to 3.0 mL of 16 mg/mL fasudil stock solution (Formulation 35A)
# [5] = five amounts of agent (about 51-210 mg) in about 2.1 g of 16 mg/mL fasudil stock solution
compound,measurement,setting,value
Sulfobutyl ether betacyclodextrin [SBEBCD],Rank#,[1]; [4],3
same,Rank,"[1]; Bitterness rank 1 to 10, five amounts of agent (about 51-210 mg) in about 2.1 g stock solution, same rank for all",3
same,Observation,[1]; [4],"Less bitter, Astringent"
same,Observation,[1]; [5],slightly bitter
Cn1c(=O)c2c(ncn2C)n(C)c1=O [Caffeine],Observation,[1]; [4],Very bitter
"CC(O)COC[C@H]1O[C@@H]2O[C@H]3[C@H](O)[C@@H](O)[C@@H](O[C@H]4[C@H](O)[C@@H](O)[C@@H](O[C@H]5[C@H](O)[C@@H](O)[C@@H](O[C@H]6[C@H](O)[C@@H](O)[C@@H](O[C@H]7[C@H](O)[C@@H](O)[C@@H](O[C@H]8[C@H](O)[C@@H](O)[C@@H](O[C@H]1[C@H](O)[C@H]2O)O[C@@H]8COCC(C)O)O[C@@H]7COCC(C)O)O[C@@H]6COCC(C)O)O[C@@H]5COCC(C)O)O[C@@H]4COCC(C)O)O[C@@H]3COCC(C)O (stereo partly drawn) [HPBCD, Hydroxypropyl betacyclodexrin]",Rank#,[1]; [4],7
"O=S(=O)(c1cccc2cnccc12)N1CCCNCC1 [fasudil, hexahydro-1-(5-isoquinolinesulfonyl)-1H-1,4-diazepine monohydrochloride hemihydrate]",taste / palatability on tasting,"[2]; listed as fasudil hydrochloride, monohydrochloride hemihydrate",highly aversive numbing and bitter taste
same,taste / palatability on tasting,[2]; monohydrochloride hemihydrate,"very aversive, bitter taste"
same,Taste Perception,[3]; fasudil aqueous composition 0.05 mg/ml,Imperceptible
same,Taste Perception,[3]; fasudil aqueous composition 0.1 mg/ml,Mild Taste
same,Taste Perception,[3]; fasudil aqueous composition 0.5 mg/ml,Mild taste
same,Taste Perception,[3]; fasudil aqueous composition 1.0 mg/ml,"Perceptible, but tolerable"
same,Taste Perception,[3]; fasudil aqueous composition 1.5 mg/ml,Yuck
"[Cl-].[Na+] [NaCl, Sodium chloride]",Observation,[1]; [4],"Salty, less bitter"
NCC(=O)O [Glycine],Rank#,[1]; [4],2
same,Observation,[1]; [4],Less bitter
same,Observation,[1]; [5],"All were slightly bitter, tolerable, Rank"
same,Observation,"[1]; five amounts of agent (about 51-210 mg) in about 2.1 g of 16 mg/mL fasudil stock solution, listed as glycine",some bitterness lingered in the mouth after rinsing with water
O=S(=O)(c1cccc2c(O)nccc12)N1CCCNCC1 [hydroxyfasudil],taste / palatability on tasting,[2],highly aversive numbing and bitter taste
CC1CCC(C(C)C)C(O)C1 (stereo not drawn) [Menthol],Rank#,[1]; [4],7
same,Observation,[1]; [4],Moderately bitter

# Counter-ions that a name gives are not always drawn.
